From publication PMC4374698

Protein sequences, listed by entry. Tags and fused reporters are not part of them. Residues count along the entry.
UniProt Q9HC16: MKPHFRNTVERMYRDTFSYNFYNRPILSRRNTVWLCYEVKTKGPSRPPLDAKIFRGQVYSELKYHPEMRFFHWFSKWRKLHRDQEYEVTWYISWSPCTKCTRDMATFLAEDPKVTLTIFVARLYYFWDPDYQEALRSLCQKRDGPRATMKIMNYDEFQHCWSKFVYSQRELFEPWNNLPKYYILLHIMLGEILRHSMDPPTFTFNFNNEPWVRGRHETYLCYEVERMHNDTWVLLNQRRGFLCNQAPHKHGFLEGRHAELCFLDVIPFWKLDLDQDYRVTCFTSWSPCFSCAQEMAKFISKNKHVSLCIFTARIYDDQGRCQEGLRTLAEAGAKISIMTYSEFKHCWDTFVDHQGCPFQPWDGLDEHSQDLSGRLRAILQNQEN
UniProt Q99IB8, residues 1031-1661: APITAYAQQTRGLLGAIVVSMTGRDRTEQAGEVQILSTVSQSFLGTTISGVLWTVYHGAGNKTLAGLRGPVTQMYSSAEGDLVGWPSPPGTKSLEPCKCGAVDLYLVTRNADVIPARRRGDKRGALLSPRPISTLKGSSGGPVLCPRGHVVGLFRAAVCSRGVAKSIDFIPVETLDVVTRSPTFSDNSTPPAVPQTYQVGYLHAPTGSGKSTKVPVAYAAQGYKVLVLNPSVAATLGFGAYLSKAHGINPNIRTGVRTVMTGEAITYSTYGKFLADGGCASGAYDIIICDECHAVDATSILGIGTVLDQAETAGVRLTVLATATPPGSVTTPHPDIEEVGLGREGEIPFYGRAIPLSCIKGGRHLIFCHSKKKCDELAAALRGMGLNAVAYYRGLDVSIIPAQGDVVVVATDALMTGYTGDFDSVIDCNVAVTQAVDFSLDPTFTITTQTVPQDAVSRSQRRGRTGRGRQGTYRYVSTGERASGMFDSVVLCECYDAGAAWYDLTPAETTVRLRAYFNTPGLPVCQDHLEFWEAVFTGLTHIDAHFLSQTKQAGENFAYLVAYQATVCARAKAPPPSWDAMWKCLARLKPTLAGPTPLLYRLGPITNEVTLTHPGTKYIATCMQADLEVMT

Target: full length wild-type hA3G fused with an HA tag at the C-terminus (hA3G-HA), in lysate of transfected Huh7.5 cells (human) (UniProt Q9HC16)
Test: affinity purification with mass spectrometry; anti-HA immunoprecipitate of HCV-infected Huh7.5 cells transfected with phA3G-HA; bands of the SDS-PAGE gel extracted and sequenced by LC-MS/MS

HCV non-structural protein NS3, from HCV-infected Huh7.5 cells (from UniProt Q99IB8 1031-1661)
binding: binds

Results are given in words; binding and its absence hold for the method and conditions named. Binding seen in cells or lysates may run through a third protein. A yes stands for co-enrichment or nearness to the bait. Other partners may have been found.
